Like-named read-outs stand apart in the source and are kept apart here. This continues a long series; more values of the same kind are listed elsewhere.
System: T. brucei lysate proteins
Type: binding, Trypanosoma brucei

`CCCCCCOc1ccc(Cc2cnc(N)nc2N)cc1` [compound 1] was tested, and the fold change (protein TB09.211.0560 RNA-BINDING PROTEIN, vehicle control = 1) was 0.91, the fold change (protein TB09.211.4760 METACASPASE 5, PUTATIVE, vehicle control = 1) was 0.84 and the fold change (protein TB11.02.2040 HY[…], CONSERVED, vehicle control = 1) was 0.89. The fold change (protein TB11.03.0530 HY[…], CONSERVED, vehicle control = 1) was 1.1, the “fold change - vehicle control” value (protein TB427TMP.01.0620 HY[…], CONSERVED) was 0.8 and the fold change (protein TB427TMP.01.2460 HY[…], CONSERVED, vehicle control = 1) was 0.86. For the same compound, the fold change (protein TB427TMP.01.2840 HY[…], CONSERVED, vehicle control = 1) was 1, the fold change (protein TB427TMP.01.3110 HEAT SHOCK PROTEIN 70, vehicle control = 1) was 1.1 and the fold change (protein TB427TMP.01.6180 HY[…], CONSERVED, vehicle control = 1) was 0.95. For the same compound, the fold change (protein TB427TMP.01.7290 NUDIX HYDROLASE, CONSERVED, vehicle control = 1) was 1.1, the fold change (protein TB427TMP.02.2890 HY[…], CONSERVED, vehicle control = 1) was 0.98 and the fold change (protein TB427TMP.02.4300 HY[…], CONSERVED, vehicle control = 1) was 0.89. The fold change (protein TB427TMP.03.0030 ABC TRANSPORTER, PUTATIVE, vehicle control = 1) was 1.3, the fold change (protein TB427TMP.160.4560 ARGININE KINASE, vehicle control = 1) was 1.55 and the fold change (protein TB427TMP.160.4620 INOSITOL-1(OR 4)-MONOPHOSPHATASE, PUTATIVE, vehicle control = 1) was 0.95. The fold change (protein TB427TMP.211.2460 HY[…], CONSERVED, vehicle control = 1) was 1.2, the fold change (protein TB427TMP.211.4550 60S RIBOSOMAL PROTEIN L12, PUTATIVE, vehicle control = 1) was 1.38 and the fold change (protein TB427TMP.211.4810 HY[…], CONSERVED, vehicle control = 1) was 0.94. For the same compound, the fold change (protein TB427TMP.244.2570 CALCIUM MOTIVE P-TYPE ATPASE, PUTATIVE, vehicle control = 1) was 0.88, the fold change (protein TB427TMP.57.0008 CALPAIN-LIKE PROTEIN, PUTATIVE, vehicle control = 1) was 1.21 and the fold change (protein TB427.02.5820 HY[…], CONSERVED, vehicle control = 1) was 1.75. For the same compound, the fold change (protein TB427.02.5900 HY[…], CONSERVED, vehicle control = 1) was 0.95, the fold change (protein TB427.03.3000 FLAGELLAR TRANSPORT PROTEIN, PUTATIVE, vehicle control = 1) was 1 and the fold change (protein TB427.03.4070 HY[…], CONSERVED, vehicle control = 1) was 0.97. It also gave a fold change (protein TB427.04.2060 HY[…], CONSERVED, vehicle control = 1) of 0.94, a fold change (protein TB427.04.2340 HY[…], CONSERVED, vehicle control = 1) of 0.93 and a fold change (protein TB427.04.3740 FLAGELLAR […] PROTEIN, vehicle control = 1) of 1.46. For the same compound, the “fold change - vehicle control” value (protein TB427.05.1490 HY[…], CONSERVED) was 1.08, the fold change (protein TB427.05.1700 R[…] A 28 KDA SUBUNIT, PUTATIVE, vehicle control = 1) was 1.21 and the fold change (protein TB427.05.3260 HY[…], CONSERVED, vehicle control = 1) was 1. For the same compound, the fold change (protein TB427.05.550 VACUOLAR ATP SYNTHASE, PUTATIVE, vehicle control = 1) was 1.42, the fold change (protein TB427.06.4740 IMPORTIN-ALPHA RE-EXPORTER PROTEIN, PUTATIVE, vehicle control = 1) was 0.93 and the fold change (protein TB427.08.1420 ACYL-COA DEHYDROGENASE, MIT[…], PUTATIVE, vehicle control = 1) was 0.88. For the same compound, the fold change (protein TB427.08.1950 HY[…], CONSERVED, vehicle control = 1) was 0.94, the fold change (protein TB427.10.14180 PROTEIN TRANSPORT PROTEIN SEC13, PUTATIVE, vehicle control = 1) was 0.94 and the fold change (protein TB427.10.1450 HY[…], CONSERVED, vehicle control = 1) was 1.4. It also gave a fold change (protein TB427.10.14860 HY[…], CONSERVED, vehicle control = 1) of 0.89, a fold change (protein TB427.10.15360 HY[…], CONSERVED, vehicle control = 1) of 0.91 and a fold change (protein TB427.10.15910 GLYCEROL UPTAKE PROTEIN, PUTATIVE, vehicle control = 1) of 0.94. For the same compound, the fold change (protein TB427.10.2020 HEXOKINASE, vehicle control = 1) was 1.5, the fold change (protein TB427.10.3210 DELTA-1-PYRROLINE-5-CARBOXYLATE DEHYDROGENASE, PUTATIVE, vehicle control = 1) was 0.99 and the fold change (protein TB427.10.4600 HY[…], CONSERVED, vehicle control = 1) was 0.46. For the same compound, the fold change (protein TB427.10.5520 HY[…], CONSERVED, vehicle control = 1) was 0.78, the “fold change - vehicle control” value (protein TB427.10.5840 T[…] 1-BETA, PUTATIVE) was 0.89 and the fold change (protein TB427.10.5850 HY[…], CONSERVED, vehicle control = 1) was 1.2. For the same compound, the fold change (protein TB427.10.7620 MIT[…]-DEPENDENT ZINC METALLOPEPTIDASE, PUTATIVE, vehicle control = 1) was 1.4, the fold change (protein TB427.10.9890 HY[…], CONSERVED, vehicle control = 1) was 1.1 and the fold change (protein TB927.10.13290 ETHANOLAMINE PHOSPHOTRANSFERASE (EPT), vehicle control = 1) was 0.94. For the same compound, the fold change (protein TB927.10.14170 AQUAPORIN 9, PUTATIVE, vehicle control = 1) was 0.96, the fold change (protein TB927.10.4310 PROHIBITIN 2, PUTATIVE, vehicle control = 1) was 0.96 and the fold change (protein TB927.10.6050 CLATHRIN HEAVY CHAIN, vehicle control = 1) was 0.94. The fold change (protein TB927.10.9740 […] SUBUNIT 6, vehicle control = 1) was 1.34, the fold change (protein TB927.2.1780 UDP-GLCNAC:PI A1-6 GLCNAC-TRANSFERASE, vehicle control = 1) was 0.92 and the fold change (protein TB927.2.5160 CHAPERONE PROTEIN DNAJ, PUTATIVE, vehicle control = 1) was 1.52. For the same compound, the fold change (protein TB927.6.2360 ADENOSINE KINASE, PUTATIVE, vehicle control = 1) was 0.91, the fold change (protein TB927.7.7040 METHYLTHIOADENOSINE PHOSPHORYLASE, PUTATIVE, vehicle control = 1) was 0.55 and the fold change (vs vehicle control, protein ADENOSINE TRANSPORTER 1 (CZT00028614.1)) was 1.1. The fold change (vs vehicle control, protein HA-UBIQUITIN (CZB00000046.1)) was 0.78, the fold change (vs vehicle control, protein TB09.160.2360 POLY(A) EXPORT PROTEIN, PUTATIVE) was 0.93 and the fold change (vs vehicle control, protein TB09.211.0630 ACTIN A) was 0.93.

From publication PMC6199744, “Development of Chemical Proteomics for the Folateome and Analysis of the Kinetoplastid Folateome” (ACS Infectious Diseases, 2018)
